Out of some 6,900 compounds screened, fewer than 10 were called active. Calls follow the shape of the dose curve; as a rule, active = well fitted curve in the direction sought with a large enough effect; inconclusive = small, poorly fitted or top-dose-only effect, or another doubt; inactive = no such curve, though single readings can be large or run the other way. Some of the results follow.
Molecular target: Metallo-beta-lactamase type 2 (Klebsiella pneumoniae) (UniProt C7C422)
Assay: qHTS to identify inhibitors of the New Delhi Metallo-beta-lactamase (NDM): primary screen against the NCATS Gemini Collection; also: % of control where 0% means no effect
Details: NDM-1 enzyme, meropenem hydrolysis, absorbance 300 nm; at 38.4 µM (top of the series) unless noted
Method in brief: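 Meropenem hydrolysis (50 uM final) by 2 nM NDM-1 read as 300 nm absorbance after 30 min, following >30 min compound–enzyme preincubation in HEPES pH 7.0 with 1 uM ZnSO4 and 0.01% Tween20.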

The chains behind the UniProt entries cited, without tags or fusion partners. Where a name states a change or a piece, a line headed by the entry shows the natural chain unless it says otherwise.
UniProt C7C422: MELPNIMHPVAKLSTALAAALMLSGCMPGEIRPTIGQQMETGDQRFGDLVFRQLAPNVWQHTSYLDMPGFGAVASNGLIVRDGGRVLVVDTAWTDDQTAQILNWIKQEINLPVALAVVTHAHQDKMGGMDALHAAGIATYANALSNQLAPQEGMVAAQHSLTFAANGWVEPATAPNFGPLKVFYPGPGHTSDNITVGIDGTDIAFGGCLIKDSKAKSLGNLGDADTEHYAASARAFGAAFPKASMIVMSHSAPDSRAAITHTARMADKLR

Activity % (negative = inhibition), inactive:
CN1c2cc(C(=O)NCc3ccccc3)ccc2C(=O)N2CCCC21 (centres undefined) -1.5%
O=C(CN1C(=O)C(c2ccccc2)=NC12CCCC2)NC1CCCC1 -1.45%
CN(c1ccccc1)c1cc(=O)c2ccnc(-c3ccc(CO)cc3)c2o1 27.6% [at 57.5 µM]
CCCc1cc(C(=O)N2CCC(=O)N(CC3CC3)C(C(C)C)C2)cs1 (centres undefined) 0.0611%
COc1ccc(CC2(CO)CCN(c3cc(OC)nc(N)n3)CC2)cc1 0.978%
CCC(CC)n1c(=O)n(CCCc2cccnc2)c2cc(C(=O)O)cnc21 7.44%
Cc1cnn(CC(=O)N2CC(F)(F)C[C@H]2c2nc(C3CC3)no2)c1 2.2%
CCN1CCN(c2nc3c(s2)CN(Cc2ccccn2)CC3)CC1 -5.21%
CC1=C[C@@H](CO)[C@H](C(C)C)C[C@H]1CC(=O)NCc1cc(F)cc(F)c1 1.77% [at 57.5 µM]
O=C(c1ccc(F)cc1)N1CCCC(C(=O)N2CCC(c3nc4ncccc4[nH]3)CC2)C1 (centres undefined) 2.12%
c1ccc(-c2nnc([C@H]3CCN(Cc4ccco4)C3)o2)cc1 0.128% [at 57.5 µM]
CCOc1ccc(NC(=O)NCCc2noc(C)n2)cc1 -1.85%
CC1CCC2(CC1)NC(=O)N(CC(=O)N1CCc3ccccc31)C2=O (centres undefined) 7.2%
COCCO[C@H]1C(=O)N(C2CCN(C(=O)c3cnccn3)CC2)[C@H]1c1ccncc1 0.147%
CC(C)(C)N1CC(C(=O)NCCCc2ccccc2F)CC1=O (centres undefined) -1.78%
Cc1nsc(NC(=O)NCc2ccccc2OC(F)(F)F)n1 1.6%
CCOCC(=O)N[C@@H]1CN(Cc2ccccc2)C[C@H]1CN(C)C 1.95%
CSc1ccc(-c2nc(CN(C)Cc3cc(C)no3)c(C)o2)cc1 18.7%
Cn1nc2n(c1=O)CCN(Cc1ccc(Br)s1)CC2 1.51%
CS(=O)(=O)N(C1CC1)C1CCOC2(CCN(C(=O)CCC3CCCC3)CC2)C1 (centres undefined) -1.24%
Cc1noc(C)c1S(=O)(=O)N1CCC(Cc2nc(-c3cccnc3)n[nH]2)C1 (centres undefined) 43.2%
O=C(NCc1ccc(F)c(F)c1)c1ccc2nnc(Cc3ccco3)n2c1 7.63%
Cc1noc2c(NCCN(C)C)cc(-c3ccccc3)nc12 6.75% [at 57.5 µM]
COC[C@@H]1[C@H](C(=O)N2CCN(c3ccccn3)CC2)CCC(=O)N1C 2.22%
Cc1c(C(=O)N2CC[C@@](O)(C3CCOCC3)[C@H](C)C2)n(C)c2c(C)cccc12 22.6%
O=C(C1CCOCC1)N1CCC2(CC1)CC(N1CCCC1)CCO2 (centres undefined) 13.4%
Cc1noc(C2CC3(CCN(C(=O)Nc4ccccc4)CC3)CN2C)n1 (centres undefined) 9.44%
CCN(C(=O)c1cccc(F)c1F)[C@@H]1CCN(c2ncccc2C#N)C[C@H]1O 0.202%
O=C(NCc1ccc(F)cc1)[C@@H]1C[C@H](c2ccc(F)cc2)N([S+](=O)([O-])C2CC2)C1 -0.046% [at 57.5 µM]
CC(C)c1noc([C@@H]2C[C@H](NS(=O)(=O)c3ccccc3)CN2C)n1 3.48% [at 57.5 µM]
COc1cccc(CCC(=O)N2CCC(n3cc(-c4nc(-c5ccccc5)no4)nn3)C2)c1 (centres undefined) 2.63%
CC(=O)N1CCN(C(=O)c2cc(-c3ccc(F)cc3)c3nncn3n2)CC1 8.34%
O=C1NC2(CN([S+](=O)([O-])c3ccsc3)C2)Oc2ccccc21 2.5% [at 57.5 µM]
CC(=O)N1CCCC1c1nnc2n1CCNC2 (centres undefined) 6.83% [at 57.5 µM]
O=C(NCc1ccc(F)cc1)c1ccc2nnc(CC3CC3)n2c1 -0.497% [at 57.5 µM]
COc1ccc(NC(=O)N2C[C@@H]3C[C@H](C2)c2ccc(NC(=O)c4ccccn4)c(=O)n2C3)cc1 2.94%
CN(C)c1ccc(CCc2nc(C3CCOC3)no2)cc1 (centres undefined) 4.84%
O=C(c1ccc(C(F)(F)F)cc1)N1CCC2(CC1)CNc1ccccc1[S+](=O)([O-])N2 1.48%
Cc1nc2scc(CC(=O)N3CCOCC3)n2c(=O)c1-c1cc(C)n(-c2ccc(F)cc2)n1 8.07%
CC(C)CCN1C[C@@H]2C(=O)N(CCc3ccccc3)C(=O)[C@@H]2C1 9.39%
COCCNC(=O)[C@@H]1C[C@@H](O)CN1C1CCN(C(=O)Cc2ccccc2)CC1 -3.06%
O=C(Nc1cccc(Cl)c1)N1CC(n2cc(COc3ccccc3)nn2)C1 -0.641%
O=C(Nc1ccc(F)cc1)c1ccc2cc[nH]c2n1 20.9% [at 57.5 µM]
C[C@@H](NS(=O)(=O)c1ccc(Cl)cc1)c1onc(-c2ccc(F)cc2)c1C(=O)O 21.9% [at 57.5 µM]
O=C(CCCc1c[nH]c2ccccc12)N1CCc2nc3cc[nH]n3c(=O)c2C1 5.38%
Cn1cnnc1-c1nn(C)c2c1CNCC2 3.66%
O=C(CN1CC2CC(C1)[C@H]1CCCC(=O)N1C2)N1CCN(c2ccc(Cl)cc2)CC1 (some centres undefined) -6.23%
CCN1C(=O)C2CC3(CCN(C(=O)c4cc(C)n(CCOC)c4C)CC3)CN2C1=O (centres undefined) 9.95%
c1cc2c(cc1CN1CCOCC1)CNCCO2 -2.06%
CC(C)NC(=O)[C@@H]1C[C@@H](N)CN1C(=O)c1cccc2ccccc12 2.07%
O=C1CCN(C(=O)c2cc3ccccc3[nH]2)CCCCCCN1 24%
CN(C1CCCCC1)S(=O)(=O)C1CCS(=O)(=O)C1 (centres undefined) -0.408%
O=C(N[C@@H]1CN(C(=O)c2nccc3ccccc23)C[C@H]1CO)c1ccccc1 -0.936%
C[S+](=O)([O-])NCCNC(=O)c1cccc(-c2ccc(C(F)(F)F)cc2)c1 -5.03%
Cc1cccc(OCC(=O)c2ccc3c(c2)N(C(C)C(=O)N2CCOCC2)C(=O)CO3)c1C (centres undefined) 8.23%
COc1cc(CN2CCN(c3ccc(C#N)cn3)CC2CCO)cc(OC)c1 (centres undefined) 19.5%
O=C(c1ccccc1Cl)N1CCCC(C(=O)N2CCC(c3ccccc3)CC2)C1 (centres undefined) 10%
CCO[C@H]1CN(C(=O)Cc2ccccc2OCc2ccccc2)C[C@@H]1O 72.3%
CNC(=O)[C@H]1C[C@]2(CCCCNC2=O)N(C(=O)c2cccc(C#N)c2)[C@H]1c1ccco1 1.12%
COc1ccc(N2CC3CCC(C2)N3C(=O)NC(C)C)cc1 4.56%
CNC(=O)c1cc(C)nc2onc(C3CCN(C(=O)c4ccccc4Cl)C3)c12 (centres undefined) 3.46%
CCOCC(O)Cn1cnc(-c2ccccc2)c1-c1cccc(OC)c1F (centres undefined) -10.4%
CC(c1cccs1)N(C)Cc1ccncc1 (centres undefined) 0.677% [at 57.5 µM]
Cc1ccc(OCCC2CCN(C(=O)c3cc(CN4CCOCC4)on3)C2)cc1 (centres undefined) -0.73%
CCN1CCC(N2CCCC(N3CCN(c4cccc(Cl)c4)CC3)C2)CC1 (centres undefined) 48.3%
CN(C)c1ccc2ncc(Nc3ccc(Cl)cn3)n2n1 1.88% [at 77.1 µM]
CCCNC(=O)N(C1CCOCC1)C1CCN(C(=O)c2nn(C)c3ccccc23)CC1 9.59%
O=C(c1n[nH]c2ccccc12)N1CC2CC(C1)[C@H]1CCCC(=O)N1C2 (some centres undefined) 17%
N#Cc1ccc(CN2CCC3(CNc4ccccc4[S+](=O)([O-])N3)C2)cc1 (centres undefined) 3.22%
CCOC(=O)C(Cc1cccc(N2CCN([S+](=O)([O-])c3ccccc3Cl)CC2)c1)OC (centres undefined) 0.0904%
OC[C@@H]1O[C@H](CNCc2ccc(F)cc2)[C@H](N2CCCC2)[C@@H]1O 22.3% [at 57.5 µM]
CO[C@H]1CN(C2CCN(C(=O)C3CCN(C(C)=O)CC3)CC2)[C@H]1c1ccncc1 6.27%
CCOc1cccc(CN2CCc3c(c(CN(C(C)=O)c4ccccc4)nn3C)C2)c1O 1.47%
CC(=O)c1cc(C(=O)NCc2c(C)ncc3c2CCNC3)[nH]n1 1.33%
CNC(=O)[C@@H]1CN(C(=O)c2ccc(F)c(Cl)c2)C[C@H]1COC 6.05%
Fc1ccc(-c2cccc(CN3CC4CCC(C3)N4c3ccc(C(F)(F)F)cc3)c2)c(F)c1 5.91%
O=C(NCC1CN(C(=O)Cc2ccc(C(F)(F)F)cc2)CC12CN(c1ccccc1)C2)c1ccccc1 (centres undefined) 0.75%
CCOc1ccc(C(=O)N2c3ccccc3CC2c2nc(CCOC)no2)cc1 (centres undefined) -0.78%
O=C1CCCCC(CNC(=O)C2(c3ccccc3)CC2)N1 (centres undefined) -0.899%
O=C(O)CCCC(=O)N[C@H]1CO[C@H]2[C@@H]1OC[C@@H]2Nc1nccc(-c2ccc3c(c2)OCO3)n1 4.02%
O=C(c1ccc(Cn2cccn2)o1)N1CCC2(CC1)[C@H](O)C[C@@H]2O -0.202%
CC(C)NC(=O)C[C@@H]1C[C@H]2O[C@H](CNC(=O)NCc3ccccc3)[C@@H](O)[C@H]2O1 -5.17% [at 57.5 µM]
CCc1cccc(NC(=O)N2CC(c3nnc(C(C)C)o3)C3(CCOCC3)C2)c1 (centres undefined) -0.479%
O=[S+]([O-])(Nc1ccccc1)c1ccc2c(c1)OCCN(Cc1nccs1)C2 -1.87% [at 57.5 µM]

An excerpt from above in order of molar mass, falling:
Activity % (negative = inhibition), inactive:
O=[S+]([O-])(Nc1ccccc1)c1ccc2c(c1)OCCN(Cc1nccs1)C2 -1.87% [at 57.5 µM]
CO[C@H]1CN(C2CCN(C(=O)C3CCN(C(C)=O)CC3)CC2)[C@H]1c1ccncc1 6.27%
Cc1ccc(OCCC2CCN(C(=O)c3cc(CN4CCOCC4)on3)C2)cc1 (centres undefined) -0.73%
